From patent publication US12134617B1, “Pyrimido[1′6′:1,5]pyrazolo[4,3-c][1,7]naphthyridines as CK2 inhibitors” (KING FAISAL UNIVERSITY, priority 2024, dated 2024) come the findings set out here.

SMILES strings stand for the structures.

Holding throughout (format): cell-based
The test system of one assay is PC3 (prostate). The assay is described as follows: In vitro cytotoxic activity (MTT) assay, PC3. To be noted: Homo sapiens, PC-3; PC3 cells, exposed for 96 hours, 50% inhibition of cell proliferation; read-out: Cytotoxicity activity IC50, PC3 (prostate). The method, then:
(§1) In Vitro Cytotoxic Activity Assay
(§2) Compounds 1-16 were screened for their in vitro cytotoxic activity utilizing a 3-(4,5-dimethyl-thiazol-2-yl)-2,5-diphenyltetrazolium bromide (MTT) assay against selected cancer human cell lines consisting of PC3 (prostate), HCT116 (colon), A375 (melanoma), H1299 (lung), MIAPaCa-2 (pancreas), HL60 (leukemia), MCF7 (breast), MDA-MB-231 (breast) (T. Mosmann, J. Immunol. Meth., 1983, 65, 55-63). The cells were cultured at 37° C. in RMPI1640 medium supplemented with 10% fetal bovine serum, 50 IU/mL penicillin, and 50 μg/mL streptomycin in a 5% CO2 incubator. All cells were sub-cultured 3 times/week by trypsinisation. Viable cells were seeded and allowed to adhere for 12 hours before a test drug was added in 96-well plates at an initial density of 1.0×10^5 cells/mL. Tumor cell lines were separately exposed to various concentrations of the tested compounds followed by incubation at a temperature of 37° C. during 96 hours inside a medium of fresh RMPI 1640. Cells were subsequently incubated at 37° C. using MTT at 0.5 mg/mL during 4 hours. After removal of supernatant, formazan crystals were dissolved in isopropanol and the optical density was measured at 570 nm. CX-4945 was used as a positive control.

The subject of a further assay is HCT116 (colon). The assay is described as follows: In vitro cytotoxic activity (MTT) assay, HCT116. To be noted: Homo sapiens, HCT-116; HCT116 cells, exposed for 96 hours, 50% inhibition of cell proliferation; read-out: Cytotoxicity activity IC50, HCT116 (colon). On the procedure: as §1, §2
Another assay has as its system A375 (melanoma). The assay is described as follows: In vitro cytotoxic activity (MTT) assay, A375. Particulars: Homo sapiens, A-375; A375 cells, exposed for 96 hours, 50% inhibition of cell proliferation; read-out: Cytotoxicity activity IC50, A375 (melanoma). On the procedure:
as §1, §2

A further assay deals with H1299 (lung). The assay is described as follows: In vitro cytotoxic activity (MTT) assay, H1299. Particulars: Homo sapiens, NCI-H1299; H1299 cells, exposed for 96 hours, 50% inhibition of cell proliferation; read-out: Cytotoxicity activity IC50, H1299 (lung). The method, then:
as §1, §2

Another assay concerns MIAPaCa-2 (pancreas). The assay is described as follows: In vitro cytotoxic activity (MTT) assay, MIAPaCa-2. To be noted: Homo sapiens, MIA PaCa-2; MIAPaCa-2 cells, exposed for 96 hours, 50% inhibition of cell proliferation; read-out: Cytotoxicity activity IC50, MIAPaCa-2 (pancreas). The method, then: as §1, §2
The test system of a further assay is HL60 (leukemia). The assay is described as follows: In vitro cytotoxic activity (MTT) assay, HL60. To be noted: Homo sapiens, HL-60; HL60 cells, exposed for 96 hours, 50% inhibition of cell proliferation; read-out: Cytotoxicity activity IC50, HL60 (leukemia). The method, then: as §1, §2
For another assay, the system named is MCF7 (breast). The assay is described as follows: In vitro cytotoxic activity (MTT) assay, MCF7. Particulars: Homo sapiens; MCF7 cells, exposed for 96 hours, 50% inhibition of cell proliferation; read-out: Cytotoxicity activity IC50, MCF7 (breast). On the procedure: as §1, §2
A further assay has as its system MDA-MB-231 (breast). The assay is described as follows: In vitro cytotoxic activity (MTT) assay, MDA-MB-231. Particulars: Homo sapiens; MDA-MB-231 cells, exposed for 96 hours, 50% inhibition of cell proliferation; read-out: Cytotoxicity activity IC50, MDA-MB-231 (breast). The method, then: as §1, §2

With `O=C(O)c1ccc2c(c1)nc(Nc1cccc(Cl)c1)c1ccncc12` [CX-4945, reference compound], the IC50 (as a rule, the concentration that inhibits the measured activity by half) was 2 µM in the assay on PC3 (prostate); 2.3 µM in the assay with HCT116 (colon); 4.1 µM in the assay on A375 (melanoma); 2.3 µM in the assay with H1299 (lung); 1 µM in the assay with MIAPaCa-2 (pancreas); 3.7 µM with HL60 (leukemia). Also, the IC50 with MCF7 (breast) came out at 9.1 µM; in the assay with MDA-MB-231 (breast) it was 6.2 µM.
